Among the data in article PMC6639331 are binding values, retold here.

By UniProt entry, the sequences of proteins in these tests, tags left out. Where a name states a change or a piece, a line headed by the entry shows the natural chain unless it says otherwise. Chains listed by the source or under a name are the forms on record and can include a tag or linker. Residues count along the entry.
UniProt A5YKK6: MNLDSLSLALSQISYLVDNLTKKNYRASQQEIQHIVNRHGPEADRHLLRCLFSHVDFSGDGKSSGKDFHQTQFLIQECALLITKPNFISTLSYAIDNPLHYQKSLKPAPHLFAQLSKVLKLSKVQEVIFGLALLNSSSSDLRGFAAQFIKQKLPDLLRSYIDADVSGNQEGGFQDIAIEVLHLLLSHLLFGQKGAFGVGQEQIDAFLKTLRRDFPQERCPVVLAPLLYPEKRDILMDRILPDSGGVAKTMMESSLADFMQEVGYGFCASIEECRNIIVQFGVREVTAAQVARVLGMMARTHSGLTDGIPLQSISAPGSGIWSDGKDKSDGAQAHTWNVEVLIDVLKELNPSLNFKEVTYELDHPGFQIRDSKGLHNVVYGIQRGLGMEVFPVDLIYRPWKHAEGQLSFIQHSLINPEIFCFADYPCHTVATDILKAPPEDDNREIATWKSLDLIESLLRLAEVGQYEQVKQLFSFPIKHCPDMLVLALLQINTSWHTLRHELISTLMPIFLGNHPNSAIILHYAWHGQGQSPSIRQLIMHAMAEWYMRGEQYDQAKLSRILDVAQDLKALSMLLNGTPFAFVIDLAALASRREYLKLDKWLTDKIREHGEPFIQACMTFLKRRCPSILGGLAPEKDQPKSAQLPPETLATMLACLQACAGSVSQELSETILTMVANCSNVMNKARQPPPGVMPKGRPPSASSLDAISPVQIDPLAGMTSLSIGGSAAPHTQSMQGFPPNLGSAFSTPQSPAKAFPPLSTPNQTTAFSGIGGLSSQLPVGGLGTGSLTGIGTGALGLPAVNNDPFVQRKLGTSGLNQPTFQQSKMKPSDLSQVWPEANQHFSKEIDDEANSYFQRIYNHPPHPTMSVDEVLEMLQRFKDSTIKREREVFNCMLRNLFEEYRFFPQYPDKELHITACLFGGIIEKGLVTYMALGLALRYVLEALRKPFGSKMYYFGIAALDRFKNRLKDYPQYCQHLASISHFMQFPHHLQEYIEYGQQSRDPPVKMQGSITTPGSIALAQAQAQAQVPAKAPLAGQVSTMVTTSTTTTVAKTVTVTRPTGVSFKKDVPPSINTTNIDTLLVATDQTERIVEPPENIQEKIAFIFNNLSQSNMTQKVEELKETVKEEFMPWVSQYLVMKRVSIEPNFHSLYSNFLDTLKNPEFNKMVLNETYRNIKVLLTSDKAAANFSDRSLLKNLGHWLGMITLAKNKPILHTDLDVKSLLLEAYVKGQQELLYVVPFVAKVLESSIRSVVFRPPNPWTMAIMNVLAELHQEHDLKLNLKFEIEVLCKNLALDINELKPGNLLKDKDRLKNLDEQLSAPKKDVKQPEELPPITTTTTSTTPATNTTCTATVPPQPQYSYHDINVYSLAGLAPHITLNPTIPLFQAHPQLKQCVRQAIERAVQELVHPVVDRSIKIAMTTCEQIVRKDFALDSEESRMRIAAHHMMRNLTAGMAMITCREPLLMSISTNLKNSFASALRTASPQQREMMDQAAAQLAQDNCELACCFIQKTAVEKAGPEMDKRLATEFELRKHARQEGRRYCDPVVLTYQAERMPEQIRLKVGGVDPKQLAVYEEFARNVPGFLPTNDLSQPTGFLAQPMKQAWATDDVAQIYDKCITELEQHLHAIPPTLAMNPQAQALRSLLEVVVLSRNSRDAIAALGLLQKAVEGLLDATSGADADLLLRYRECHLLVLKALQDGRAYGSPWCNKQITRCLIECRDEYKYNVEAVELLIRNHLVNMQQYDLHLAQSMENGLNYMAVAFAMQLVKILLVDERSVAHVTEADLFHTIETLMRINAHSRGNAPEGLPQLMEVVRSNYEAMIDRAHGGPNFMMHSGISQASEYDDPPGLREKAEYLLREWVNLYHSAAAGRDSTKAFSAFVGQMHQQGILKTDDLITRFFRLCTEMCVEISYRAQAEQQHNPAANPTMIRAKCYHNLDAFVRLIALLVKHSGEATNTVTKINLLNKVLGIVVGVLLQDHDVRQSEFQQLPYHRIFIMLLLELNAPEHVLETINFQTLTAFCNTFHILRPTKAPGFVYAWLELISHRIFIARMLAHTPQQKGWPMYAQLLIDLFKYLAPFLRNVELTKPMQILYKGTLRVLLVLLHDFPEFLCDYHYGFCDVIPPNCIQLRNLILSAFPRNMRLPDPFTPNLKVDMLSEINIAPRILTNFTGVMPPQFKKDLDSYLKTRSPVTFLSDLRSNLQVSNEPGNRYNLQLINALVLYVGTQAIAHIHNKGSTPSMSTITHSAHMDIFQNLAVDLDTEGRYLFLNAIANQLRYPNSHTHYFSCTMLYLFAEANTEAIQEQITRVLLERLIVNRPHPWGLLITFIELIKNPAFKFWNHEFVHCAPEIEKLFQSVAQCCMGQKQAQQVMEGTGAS
NOT1 (residues 1093-2376), MBP-tagged: residues 1093-2376 of A5YKK6
NOT1 (residues 1093-1607), MBP-tagged: residues 1093-1607 of A5YKK6
UniProt Q9NZN8: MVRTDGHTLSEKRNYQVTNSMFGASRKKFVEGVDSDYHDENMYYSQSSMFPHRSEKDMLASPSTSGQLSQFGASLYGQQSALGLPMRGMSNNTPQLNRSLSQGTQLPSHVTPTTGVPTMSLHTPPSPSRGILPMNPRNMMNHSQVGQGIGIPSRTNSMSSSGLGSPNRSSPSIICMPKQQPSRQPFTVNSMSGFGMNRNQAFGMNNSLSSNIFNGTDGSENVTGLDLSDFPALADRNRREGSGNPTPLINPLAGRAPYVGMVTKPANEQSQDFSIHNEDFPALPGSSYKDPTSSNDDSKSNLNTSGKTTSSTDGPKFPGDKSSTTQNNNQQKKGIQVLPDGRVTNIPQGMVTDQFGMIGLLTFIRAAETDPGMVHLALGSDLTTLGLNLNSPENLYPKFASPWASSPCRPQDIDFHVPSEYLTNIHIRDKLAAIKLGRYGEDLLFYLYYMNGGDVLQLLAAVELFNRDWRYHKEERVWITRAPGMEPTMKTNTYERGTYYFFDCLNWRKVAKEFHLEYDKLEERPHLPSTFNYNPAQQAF
UniProt O75175: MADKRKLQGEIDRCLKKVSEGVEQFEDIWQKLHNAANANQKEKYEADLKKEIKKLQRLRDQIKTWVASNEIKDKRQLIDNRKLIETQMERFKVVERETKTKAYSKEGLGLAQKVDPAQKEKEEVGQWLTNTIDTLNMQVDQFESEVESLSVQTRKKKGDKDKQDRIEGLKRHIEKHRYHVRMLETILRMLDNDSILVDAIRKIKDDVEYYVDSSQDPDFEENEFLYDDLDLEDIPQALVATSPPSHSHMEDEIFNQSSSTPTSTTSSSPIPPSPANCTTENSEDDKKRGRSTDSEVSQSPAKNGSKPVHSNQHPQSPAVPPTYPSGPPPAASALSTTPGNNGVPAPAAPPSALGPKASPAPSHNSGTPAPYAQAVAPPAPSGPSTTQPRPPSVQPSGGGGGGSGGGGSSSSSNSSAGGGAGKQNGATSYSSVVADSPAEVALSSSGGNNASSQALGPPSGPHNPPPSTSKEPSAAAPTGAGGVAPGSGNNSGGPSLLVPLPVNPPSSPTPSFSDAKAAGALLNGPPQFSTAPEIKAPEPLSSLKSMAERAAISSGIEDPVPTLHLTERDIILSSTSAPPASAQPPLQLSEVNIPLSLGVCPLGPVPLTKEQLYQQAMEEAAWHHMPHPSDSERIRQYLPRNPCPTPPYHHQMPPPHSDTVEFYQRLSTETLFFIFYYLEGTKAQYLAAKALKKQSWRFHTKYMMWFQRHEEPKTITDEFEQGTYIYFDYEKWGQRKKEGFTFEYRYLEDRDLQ
UniProt Q92600: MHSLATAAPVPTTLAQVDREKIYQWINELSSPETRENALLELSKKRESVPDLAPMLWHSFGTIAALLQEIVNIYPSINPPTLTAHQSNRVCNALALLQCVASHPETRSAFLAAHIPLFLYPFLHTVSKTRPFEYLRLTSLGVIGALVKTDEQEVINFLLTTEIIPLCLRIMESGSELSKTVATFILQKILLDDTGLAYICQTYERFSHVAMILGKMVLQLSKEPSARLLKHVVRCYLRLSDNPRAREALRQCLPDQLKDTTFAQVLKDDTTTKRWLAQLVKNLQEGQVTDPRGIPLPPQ

These are yes or no findings as the source states them, for the method shown. Some binding calls cover weakened binding; strength is not graded here.

For test [1], the target named is NOT1, full length (human) (human) (UniProt A5YKK6). The test is described as follows: co-purification (metal affinity); NOT1, NOT2, NOT3 and CAF40 co-expressed in Sf21 cells; cleared lysate on a nickel-charged HiTrap IMAC column by His10 on NOT1; 50 mM HEPES/NaOH pH 7.5, 500 mM NaCl, 50 mM imidazole; eluted by an imidazole gradient.
Test [2] deals with NOT1 (residues 1093-1607), MBP-tagged (human) (UniProt A5YKK6). The test can be described thus: co-purification (amylose resin); truncated subunits co-expressed in E. coli; isolated from the crude lysate on amylose resin by the MBP tags; 50 mM potassium phosphate pH 7.5, 300 mM NaCl; eluted with 25 mM maltose.
For test [3], the target named is NOT1 (residues 1093-2376), MBP-tagged (human) (UniProt A5YKK6). Described as above.

Consider “NOT2, full length (human) (from UniProt Q9NZN8 1-540)”, for which, in test [1], the binding result is recorded as “binds”. On to “NOT3, full length (human) (from UniProt O75175 1-753)”, for which, in test [1], the binding result is recorded as “binds”. Take “CAF40 (residues 19-285), of the NOT1:CAF40 base of CCR4-NOT CORE (from UniProt Q92600 19-285) (domain or fragment)”: the binding entry in test [2] is “binds”. On to “NOT2 (residues 344-540), MBP-tagged (from UniProt Q9NZN8 344-540) (domain or fragment)”, for which the binding result in test [3] is recorded as “binds”. With “NOT3 (residues 607-753), His6-tagged (from UniProt O75175 607-753) (domain or fragment)”, the binding result in test [3] is “binds”. For “CAF40, full length (human) (from UniProt Q92600 1-299)”, in test [1], the binding entry is reported as “binds”. In the case of “CAF40 (residues 19-285), His6-tagged, of the CCR4-NOT MINI scaffold (from UniProt Q92600 19-285) (domain or fragment)”, the binding result in test [3] is “binds”.
